PubChem BioAssay AID1224830 | NIAID | 2016

Assay: 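Regulators of TLR4 signalling towards TNF-alpha in macrophage-like cells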 (primary screen)
Cell system: human THP-1 monocytic leukaemia cells, TNF dual-luciferase reporter clone, PMA-differentiated to macrophage-like cells
Knock-down reagent: siRNA pool against human genes, 50 nM
Duration: LPS for 4 h, given about 3 days after siRNA transfection
Treatment: bacterial LPS (TLR4 ligand), 10 ng/ml
Read-out: 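Ratio of firefly to renilla light, scaled to the plate median and expressed as a robust z-score per replicate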
Direction: TNF reporter robust z-score: higher = stronger TNF reporter response to LPS
Active means: 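Each well counts as active if its z-score is over 2.8 or under -1.5; controls are left without a call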
This is an unselected part of about 18,000 reagents tested. Of all reagents, about 2,900 (16%) are marked active. 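Calls are made per well; low scores hint the gene aids the LPS response, high scores that it dampens it.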 Unmarked entries are inactive. Repeated entries: four replicate wells of each siRNA pool.

For NUAK1, what does the deposit list?
TNF reporter robust z-score: 1.82

How did the screen score NUAK1?
TNF reporter robust z-score: 0.06

What did the screen give for NUAK1?
TNF reporter robust z-score: -0.71

With NUAK1, what does the deposit list?
TNF reporter robust z-score: 0.81

How did the screen score DR1?
TNF reporter robust z-score: 1.44

What is on record for DR1?
TNF reporter robust z-score: 0.45

How did the screen score DR1?
TNF reporter robust z-score: 3.13 (active)

With DR1, what does the deposit list?
TNF reporter robust z-score: 2.21

For IFNB1, what was measured?
TNF reporter robust z-score: -0.67

For IFNB1, what does the deposit list?
TNF reporter robust z-score: -0.7

With IFNB1, how do the results read?
TNF reporter robust z-score: -1.37

How did the screen score IFNB1?
TNF reporter robust z-score: -0.24

With B4GALNT2, what was measured?
TNF reporter robust z-score: 1.05

With B4GALNT2, what does the deposit list?
TNF reporter robust z-score: -0.07

How did the screen score B4GALNT2?
TNF reporter robust z-score: -0.09

How did the screen score B4GALNT2?
TNF reporter robust z-score: 1.92

What did the screen give for HSP90AB1?
TNF reporter robust z-score: 0.39

With HSP90AB1, what does the deposit list?
TNF reporter robust z-score: 0.43

For HSP90AB1, how do the results read?
TNF reporter robust z-score: -0.06

What did the screen give for HSP90AB1?
TNF reporter robust z-score: 0.27

Entries listed above marked active, once more:
DR1: TNF reporter robust z-score = 3.13 (active)

Continued.
With GTF2H3, how do the results read?
TNF reporter robust z-score: -0.46

For GTF2H3, what does the deposit list?
TNF reporter robust z-score: -0.15

What is on record for GTF2H3?
TNF reporter robust z-score: -0.26

How did the screen score GTF2H3?
TNF reporter robust z-score: -0.69

What is on record for NECTIN1?
TNF reporter robust z-score: 0.86

For NECTIN1, how do the results read?
TNF reporter robust z-score: -0.55

What is on record for NECTIN1?
TNF reporter robust z-score: -0.39

Which result is listed for NECTIN1?
TNF reporter robust z-score: -0.46

With BRICD5, what was measured?
TNF reporter robust z-score: 0.8

For BRICD5, how do the results read?
TNF reporter robust z-score: 2.3

For BRICD5, how do the results read?
TNF reporter robust z-score: 0.72

How did the screen score BRICD5?
TNF reporter robust z-score: 1.43

For IL12RB2, what was measured?
TNF reporter robust z-score: -0.56

Which result is listed for IL12RB2?
TNF reporter robust z-score: -0.49

With IL12RB2, how do the results read?
TNF reporter robust z-score: -0.74

What did the screen give for IL12RB2?
TNF reporter robust z-score: -1.41

For PRSS22, what was measured?
TNF reporter robust z-score: -0.28

What did the screen give for PRSS22?
TNF reporter robust z-score: -0.26

With PRSS22, what does the deposit list?
TNF reporter robust z-score: -1.02

For PRSS22, how do the results read?
TNF reporter robust z-score: 3.98 (active)

What did the screen give for SIL1?
TNF reporter robust z-score: -0.97

Which result is listed for SIL1?
TNF reporter robust z-score: -0.06

With SIL1, what does the deposit list?
TNF reporter robust z-score: -0.39

What is on record for SIL1?
TNF reporter robust z-score: -0.67

What did the screen give for ANKH?
TNF reporter robust z-score: 2.67

For ANKH, how do the results read?
TNF reporter robust z-score: 4.34 (active)

How did the screen score ANKH?
TNF reporter robust z-score: 3.2 (active)

Which result is listed for ANKH?
TNF reporter robust z-score: 4.56 (active)
